The other results are listed elsewhere or left out.
Experiments:
Experiment in all cases: log2 fold change, soluble protein after heating vs DMSO (PISA); higher = thermal stabilisation; K562 lysate, 10 uM; active = over 0.2 and 3.5 SD of the protein, either way, in both replicates (recomputed)
[1] = compound: NCC(=O)Nc1ccc(-n2nc(C(F)(F)F)cc2-c2ccc3c(ccc4ccccc43)c2)cc1
Procedure, shortened: (§1)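 Thermal stability, expressed as log-two fold change relative to solvent controls, is given from duplicates. Crude K562 extract in PBS pH 7.4 with 1 mM MgCl2, at 1 mg/mL protein, was treated with 10 μM compound for 30 min and heated in aliquots for 3 min across 48°C-58°C. After pooling, adjustment to 0.5% NP-40 at 4°C and centrifugation at 21,000xg for 90 min, supernatant protein was measured by TMTpro 16plex LC-MS/MS with channel sums equalised.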

The chains behind the UniProt entries cited, without tags or fusion partners. Where a name states a change or a piece, a line headed by the entry shows the natural chain unless it says otherwise.
UniProt P35249, whole entry, looked up: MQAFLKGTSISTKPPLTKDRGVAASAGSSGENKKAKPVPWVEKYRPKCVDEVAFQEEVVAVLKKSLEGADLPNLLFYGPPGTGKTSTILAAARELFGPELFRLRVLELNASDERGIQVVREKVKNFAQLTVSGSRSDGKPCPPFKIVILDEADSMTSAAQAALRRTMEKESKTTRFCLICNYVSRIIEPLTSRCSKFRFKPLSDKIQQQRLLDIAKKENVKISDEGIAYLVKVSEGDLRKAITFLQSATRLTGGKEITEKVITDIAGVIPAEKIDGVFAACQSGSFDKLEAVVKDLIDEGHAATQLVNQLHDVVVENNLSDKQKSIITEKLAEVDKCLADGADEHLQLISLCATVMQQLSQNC
UniProt Q99708: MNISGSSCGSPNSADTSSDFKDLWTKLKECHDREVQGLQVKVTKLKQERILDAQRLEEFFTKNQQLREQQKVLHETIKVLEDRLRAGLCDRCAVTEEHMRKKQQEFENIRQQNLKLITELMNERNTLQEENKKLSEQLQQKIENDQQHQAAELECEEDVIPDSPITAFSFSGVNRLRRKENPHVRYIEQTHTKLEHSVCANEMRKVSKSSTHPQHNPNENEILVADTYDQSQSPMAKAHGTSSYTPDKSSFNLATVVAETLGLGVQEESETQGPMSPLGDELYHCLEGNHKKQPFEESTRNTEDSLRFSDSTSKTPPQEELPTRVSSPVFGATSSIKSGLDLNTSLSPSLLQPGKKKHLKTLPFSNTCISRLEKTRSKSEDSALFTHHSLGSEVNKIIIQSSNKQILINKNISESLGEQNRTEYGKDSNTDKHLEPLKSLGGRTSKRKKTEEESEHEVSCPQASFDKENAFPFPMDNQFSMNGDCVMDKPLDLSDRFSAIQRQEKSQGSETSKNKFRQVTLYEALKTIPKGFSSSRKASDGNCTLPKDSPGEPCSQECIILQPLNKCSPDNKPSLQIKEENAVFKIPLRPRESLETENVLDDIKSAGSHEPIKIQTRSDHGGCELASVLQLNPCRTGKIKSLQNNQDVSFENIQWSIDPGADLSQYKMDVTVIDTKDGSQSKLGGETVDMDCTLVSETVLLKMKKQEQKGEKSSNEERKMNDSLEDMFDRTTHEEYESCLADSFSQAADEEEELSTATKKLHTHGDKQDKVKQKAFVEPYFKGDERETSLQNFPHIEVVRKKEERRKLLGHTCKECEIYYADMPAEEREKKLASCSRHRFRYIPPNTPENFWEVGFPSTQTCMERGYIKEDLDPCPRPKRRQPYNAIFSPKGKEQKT
UniProt Q9UKL0, whole entry, looked up: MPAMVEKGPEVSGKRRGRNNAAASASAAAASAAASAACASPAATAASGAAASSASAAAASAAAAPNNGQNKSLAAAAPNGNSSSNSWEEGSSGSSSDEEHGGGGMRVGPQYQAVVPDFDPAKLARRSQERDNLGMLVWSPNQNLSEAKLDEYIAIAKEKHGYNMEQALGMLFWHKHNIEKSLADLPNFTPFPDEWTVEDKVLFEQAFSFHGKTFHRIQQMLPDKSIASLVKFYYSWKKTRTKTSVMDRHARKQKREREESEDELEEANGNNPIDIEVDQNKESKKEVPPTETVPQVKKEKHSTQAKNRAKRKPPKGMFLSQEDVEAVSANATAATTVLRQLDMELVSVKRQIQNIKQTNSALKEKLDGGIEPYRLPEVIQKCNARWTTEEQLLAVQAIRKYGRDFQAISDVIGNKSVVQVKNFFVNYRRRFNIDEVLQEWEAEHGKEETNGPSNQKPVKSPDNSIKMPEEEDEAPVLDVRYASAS
UniProt Q9HBH5: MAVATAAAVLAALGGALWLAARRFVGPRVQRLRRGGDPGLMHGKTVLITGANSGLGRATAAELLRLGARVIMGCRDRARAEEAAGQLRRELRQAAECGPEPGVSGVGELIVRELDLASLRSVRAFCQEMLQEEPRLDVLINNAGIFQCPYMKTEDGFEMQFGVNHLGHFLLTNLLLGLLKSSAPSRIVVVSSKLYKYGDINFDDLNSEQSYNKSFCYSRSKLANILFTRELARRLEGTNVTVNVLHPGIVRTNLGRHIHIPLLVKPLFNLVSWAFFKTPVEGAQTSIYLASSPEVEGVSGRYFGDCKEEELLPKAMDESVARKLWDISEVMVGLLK
UniProt Q96PK6: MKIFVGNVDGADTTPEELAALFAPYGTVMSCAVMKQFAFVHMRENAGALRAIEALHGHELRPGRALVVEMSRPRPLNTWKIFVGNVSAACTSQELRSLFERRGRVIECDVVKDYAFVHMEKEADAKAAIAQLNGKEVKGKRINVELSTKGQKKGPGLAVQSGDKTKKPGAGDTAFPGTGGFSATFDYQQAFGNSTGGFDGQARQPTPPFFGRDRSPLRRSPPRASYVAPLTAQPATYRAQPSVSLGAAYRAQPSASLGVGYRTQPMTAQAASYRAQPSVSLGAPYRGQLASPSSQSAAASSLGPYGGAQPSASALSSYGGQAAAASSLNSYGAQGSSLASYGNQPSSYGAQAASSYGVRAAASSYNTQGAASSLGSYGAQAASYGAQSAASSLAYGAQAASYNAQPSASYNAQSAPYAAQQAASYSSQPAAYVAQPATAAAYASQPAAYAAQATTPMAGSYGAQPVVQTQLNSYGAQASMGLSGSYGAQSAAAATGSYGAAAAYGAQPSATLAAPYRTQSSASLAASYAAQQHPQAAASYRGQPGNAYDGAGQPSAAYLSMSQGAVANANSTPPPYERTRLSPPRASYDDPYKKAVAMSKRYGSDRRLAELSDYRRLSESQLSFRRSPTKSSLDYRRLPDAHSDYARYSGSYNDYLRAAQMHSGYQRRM
UniProt P62877, whole entry, looked up: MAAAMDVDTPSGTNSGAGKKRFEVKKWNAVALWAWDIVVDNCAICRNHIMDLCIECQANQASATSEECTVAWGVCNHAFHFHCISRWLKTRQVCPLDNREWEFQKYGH
UniProt A6NEQ0: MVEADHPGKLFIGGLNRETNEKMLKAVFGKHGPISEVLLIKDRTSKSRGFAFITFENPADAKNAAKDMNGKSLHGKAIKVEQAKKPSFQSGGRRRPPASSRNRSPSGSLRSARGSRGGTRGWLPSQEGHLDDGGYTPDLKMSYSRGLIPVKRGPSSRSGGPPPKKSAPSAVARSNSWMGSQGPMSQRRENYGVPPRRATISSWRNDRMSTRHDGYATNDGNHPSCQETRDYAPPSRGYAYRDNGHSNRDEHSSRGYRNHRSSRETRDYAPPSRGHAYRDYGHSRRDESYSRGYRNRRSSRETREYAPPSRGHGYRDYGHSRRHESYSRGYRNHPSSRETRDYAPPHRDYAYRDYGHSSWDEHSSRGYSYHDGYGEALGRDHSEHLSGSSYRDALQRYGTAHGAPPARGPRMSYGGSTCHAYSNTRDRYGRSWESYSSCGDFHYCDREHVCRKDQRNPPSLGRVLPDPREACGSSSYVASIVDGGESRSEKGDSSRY
UniProt Q9Y3P4: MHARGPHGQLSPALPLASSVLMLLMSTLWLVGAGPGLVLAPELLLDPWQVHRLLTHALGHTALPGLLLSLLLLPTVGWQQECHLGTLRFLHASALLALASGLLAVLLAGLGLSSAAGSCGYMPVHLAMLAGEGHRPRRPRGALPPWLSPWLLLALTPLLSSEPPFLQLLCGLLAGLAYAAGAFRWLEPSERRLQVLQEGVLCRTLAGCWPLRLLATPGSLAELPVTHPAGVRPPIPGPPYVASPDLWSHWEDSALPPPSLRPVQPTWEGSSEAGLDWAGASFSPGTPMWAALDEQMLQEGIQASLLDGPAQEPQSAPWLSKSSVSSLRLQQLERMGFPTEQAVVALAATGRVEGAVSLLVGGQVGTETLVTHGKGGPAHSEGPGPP
UniProt Q8IUW5: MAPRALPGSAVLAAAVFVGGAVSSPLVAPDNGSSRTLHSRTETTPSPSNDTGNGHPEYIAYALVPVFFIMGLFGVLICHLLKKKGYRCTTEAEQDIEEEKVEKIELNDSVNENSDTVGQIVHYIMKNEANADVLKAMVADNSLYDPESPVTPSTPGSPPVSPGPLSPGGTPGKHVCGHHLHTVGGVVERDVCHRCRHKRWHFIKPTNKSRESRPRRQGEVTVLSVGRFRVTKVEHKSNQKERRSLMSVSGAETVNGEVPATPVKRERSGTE
UniProt Q9BWF3: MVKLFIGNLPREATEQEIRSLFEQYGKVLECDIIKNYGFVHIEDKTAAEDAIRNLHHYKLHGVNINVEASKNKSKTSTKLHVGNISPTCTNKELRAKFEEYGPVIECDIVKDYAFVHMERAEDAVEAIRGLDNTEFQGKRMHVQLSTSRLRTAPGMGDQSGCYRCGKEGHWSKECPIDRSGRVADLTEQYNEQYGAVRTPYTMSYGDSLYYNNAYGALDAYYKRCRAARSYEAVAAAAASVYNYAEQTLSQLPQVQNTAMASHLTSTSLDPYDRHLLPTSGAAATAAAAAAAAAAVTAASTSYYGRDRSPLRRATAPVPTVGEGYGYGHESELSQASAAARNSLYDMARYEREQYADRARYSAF
UniProt Q9HCJ3: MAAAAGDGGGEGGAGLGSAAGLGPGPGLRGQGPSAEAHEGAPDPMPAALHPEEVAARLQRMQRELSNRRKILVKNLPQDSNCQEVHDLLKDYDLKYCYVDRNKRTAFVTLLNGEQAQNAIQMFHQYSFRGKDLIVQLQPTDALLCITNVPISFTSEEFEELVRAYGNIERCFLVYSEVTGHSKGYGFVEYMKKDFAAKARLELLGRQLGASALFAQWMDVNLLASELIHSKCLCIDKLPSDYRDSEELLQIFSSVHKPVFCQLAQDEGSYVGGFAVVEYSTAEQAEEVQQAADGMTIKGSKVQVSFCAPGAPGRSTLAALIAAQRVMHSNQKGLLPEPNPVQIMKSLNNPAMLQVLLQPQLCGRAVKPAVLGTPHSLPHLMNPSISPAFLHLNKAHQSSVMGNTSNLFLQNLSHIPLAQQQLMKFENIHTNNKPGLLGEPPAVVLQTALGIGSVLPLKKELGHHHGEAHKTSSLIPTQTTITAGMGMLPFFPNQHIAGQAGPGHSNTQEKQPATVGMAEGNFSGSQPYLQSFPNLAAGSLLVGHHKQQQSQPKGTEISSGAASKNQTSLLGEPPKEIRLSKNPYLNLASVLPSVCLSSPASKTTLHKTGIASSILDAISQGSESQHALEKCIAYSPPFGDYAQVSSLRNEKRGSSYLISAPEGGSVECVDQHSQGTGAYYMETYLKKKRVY

vorinostat = compound: O=C(CCCCCCC(=O)Nc1ccccc1)NO [vorinostat]
Procedure, shortened: as §1

silmitasertib = compound: O=C(O)c1ccc2c(c1)nc(Nc1cccc(Cl)c1)c1ccncc12 [silmitasertib]
Procedure, shortened: as §1

[2] = compound: O=C1NC(=O)C(c2cnc3ccccn23)=C1c1cn2c3c(cc(F)cc13)CN(C(=O)N1CCCCC1)CC2
Procedure, shortened: as §1

entospletinib = compound: c1cn2cc(-c3ccc4cn[nH]c4c3)nc(Nc3ccc(N4CCOCC4)cc3)c2n1 [entospletinib]
Procedure, shortened: as §1

| Target | log2 fold change [1] | log2 fold change (vorinostat) | log2 fold change (silmitasertib) | log2 fold change [2] | log2 fold change (entospletinib) |
| --- | --- | --- | --- | --- | --- |
| RFC4 (UniProt P35249) | inactive: 0.013 | active: -0.423 | inactive: 0.033 | inactive: 0.008 | inactive: 0.006 |
| RBBP8 isoform 2 (UniProt Q99708) | inactive: -0.035 | inactive: 0.076 | inactive: -0.13 | inactive: -0.028 | inactive: -0.002 |
| RCOR1 (UniProt Q9UKL0) | inactive: 0.034 | inactive: -0.184 | inactive: -0.014 | inactive: -0.011 | inactive: 0.009 |
| RDH14 (UniProt Q9HBH5) | inactive: -0.072 | active: -0.318 | inactive: 0.044 | inactive: 0.004 | inactive: 0.026 |
| RBM14 (UniProt Q96PK6) | inactive: -0.037 | inactive: -0.019 | inactive: 0.033 | inactive: -0.047 | inactive: -0.081 |
| RBX1 (UniProt P62877) | inactive: 0.107 | inactive: -0.155 | inactive: 0.36 | inactive: -0.152 | inactive: 0.334 |
| RBMY1E (UniProt A6NEQ0) | inactive: 0.073 |  |  | inactive: -0.02 | inactive: 0.075 |
| RBP4 (UniProt P02753) |  |  |  | inactive: -0.047 |  |
| RHBDD3 (UniProt Q9Y3P4) |  |  |  | inactive: 0.008 |  |
| RELL1 (UniProt Q8IUW5) |  | inactive: -0.165 | inactive: -0.175 | inactive: 0.095 |  |
| RBM4 isoform 3 (UniProt Q9BWF3) |  |  |  | inactive: -0.099 |  |
| RAVER2 (UniProt Q9HCJ3) |  | inactive: 0.101 | inactive: -0.038 | inactive: -0.082 | inactive: -0.081 |

Reprinted from the listing (2 entries):

| Target | log2 fold change [1] | log2 fold change (vorinostat) | log2 fold change (silmitasertib) | log2 fold change [2] | log2 fold change (entospletinib) |
| --- | --- | --- | --- | --- | --- |
| RBM4 isoform 3 (UniProt Q9BWF3) |  |  |  | inactive: -0.099 |  |
| RAVER2 (UniProt Q9HCJ3) |  | inactive: 0.101 | inactive: -0.038 | inactive: -0.082 | inactive: -0.081 |
